PubChem BioAssay AID1259405 | NCATS, 2018

Screen: 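Mouse-designed siRNAs used to find CHO productivity engineering targets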 (primary screen)
Cell system: Chinese hamster CHO-K1 ovary cells with stable secreted eGFP expression
Reagent: single siRNA against mouse genes, 0.8 pmol siRNA per well (2 µl of 400 nM stock)
Duration: 3 days
Measurement: 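Percent of the per-plate non-targeting control median for intracellular GFP per well by laser scanning cytometry and for cell viability by ATP luminescence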
Reading the numbers: GFP, % of control: higher = more GFP per well, higher productivity; viability (ATP), % of control: higher = more viable cells (more ATP)
Hit rule: 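Called active when intracellular GFP, relative to negative control, is at or above 120%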
This is a random part of about 50,000 reagents. Over the whole deposit, about 4,000 (8%) were called active. 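Mouse siRNA library applied to hamster cells; one well for each siRNA.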 The numbers tell different reagents against one gene apart.

| target gene | reagent | GFP, % of control | viability (ATP), % of control | Call |
| --- | --- | --- | --- | --- |
| Alg6 | 1 | 68.5 | 78.8 | inactive |
| Alg6 | 2 | 121 | 69.1 | active |
| Alg6 | 3 | 102 | 118 | inactive |
| Pou3f4 | 1 | 118 | 112 | inactive |
| Pou3f4 | 2 | 72.1 | 78.8 | inactive |
| Pou3f4 | 3 | 88.1 | 73.3 | inactive |
| Rarg | 1 | 119 | 95.7 | inactive |
| Rarg | 2 | 127 | 78.7 | active |
| Rarg | 3 | 41 | 35.7 | inactive |
| Gucy1a1 | 1 | 57.7 | 76.4 | inactive |
| Gucy1a1 | 2 | 50.4 | 51.5 | inactive |
| Gucy1a1 | 3 | 58.6 | 69.6 | inactive |
| Eno4 | 1 | 56.5 | 42.7 | inactive |
| Eno4 | 2 | 85.9 | 79.8 | inactive |
| Eno4 | 3 | 82.1 | 70.3 | inactive |
| Anp32b | 1 | 75.6 | 100 | inactive |
| Anp32b | 2 | 80.9 | 116 | inactive |
| Anp32b | 3 | 88.6 | 104 | inactive |
| Arsj | 1 | 65.3 | 52.2 | inactive |
| Arsj | 2 | 74.9 | 46.4 | inactive |
| Arsj | 3 | 71.6 | 125 | inactive |
| Gigyf2 | 1 | 34.1 | 41.5 | inactive |
| Gigyf2 | 2 | 124 | 143 | active |
| Gigyf2 | 3 | 104 | 150 | inactive |
| Trappc5 | 1 | 92.3 | 109 | inactive |
| Trappc5 | 2 | 57.4 | 54.3 | inactive |
| Trappc5 | 3 | 41.9 | 57.7 | inactive |
| Pcdhga10 | 1 | 77.7 | 65 | inactive |
| Pcdhga10 | 2 | 57.9 | 69.7 | inactive |
| Pcdhga10 | 3 | 94.2 | 57.5 | inactive |
| Cdc42se1 | 1 | 49.5 | 80.3 | inactive |
| Cdc42se1 | 2 | 121 | 53.5 | active |
| Cdc42se1 | 3 | 129 | 111 | active |
| Prss48 | 1 | 73.7 | 117 | inactive |
| Prss48 | 2 | 97.2 | 93.5 | inactive |
| Prss48 | 3 | 82.1 | 38.7 | inactive |
| Pm20d2 | 1 | 86.4 | 76.9 | inactive |
| Pm20d2 | 2 | 55.3 | 44.7 | inactive |
| Pm20d2 | 3 | 81.2 | 52.6 | inactive |
| Gpr152 | 1 | 49.1 | 68.9 | inactive |
| Gpr152 | 2 | 84.2 | 80.3 | inactive |
| Gpr152 | 3 | 67.2 | 86.8 | inactive |
| Cdyl | 1 | 112 | 104 | inactive |
| Cdyl | 2 | 88.3 | 63.9 | inactive |
| Cdyl | 3 | 100 | 102 | inactive |
| Gabrg2 | 1 | 63.7 | 77.7 | inactive |
| Gabrg2 | 2 | 61.7 | 87.7 | inactive |
| Gabrg2 | 3 | 66.6 | 95.9 | inactive |
| Or13c25 | 1 | 78.2 | 67.6 | inactive |
| Or13c25 | 2 | 113 | 103 | inactive |
| Or13c25 | 3 | 25.7 | 12.5 | inactive |

17 of these entries, reformatted:
target gene | reagent | GFP, % of control | viability (ATP), % of control | Call
Pou3f4 | 3 | 88.1 | 73.3 | inactive
Rarg | 1 | 119 | 95.7 | inactive
Rarg | 2 | 127 | 78.7 | active
Rarg | 3 | 41 | 35.7 | inactive
Gucy1a1 | 1 | 57.7 | 76.4 | inactive
Gucy1a1 | 2 | 50.4 | 51.5 | inactive
Gucy1a1 | 3 | 58.6 | 69.6 | inactive
Eno4 | 1 | 56.5 | 42.7 | inactive
Eno4 | 2 | 85.9 | 79.8 | inactive
Eno4 | 3 | 82.1 | 70.3 | inactive
Anp32b | 1 | 75.6 | 100 | inactive
Anp32b | 2 | 80.9 | 116 | inactive
Anp32b | 3 | 88.6 | 104 | inactive
Arsj | 1 | 65.3 | 52.2 | inactive
Arsj | 2 | 74.9 | 46.4 | inactive
Arsj | 3 | 71.6 | 125 | inactive
Gigyf2 | 1 | 34.1 | 41.5 | inactive

Additional entries:
| target gene | reagent | GFP, % of control | viability (ATP), % of control | Call |
| --- | --- | --- | --- | --- |
| Samd11 | 1 | 167 | 84 | active |
| Samd11 | 2 | 60.8 | 71.4 | inactive |
| Samd11 | 3 | 57.8 | 67 | inactive |
| Selenbp2 | 1 | 162 | 101 | active |
| Selenbp2 | 2 | 88.1 | 58.5 | inactive |
| Selenbp2 | 3 | 56.6 | 70 | inactive |
| Tmem135 | 1 | 80.2 | 54.8 | inactive |
| Tmem135 | 2 | 125 | 72.9 | active |
| Tmem135 | 3 | 101 | 68.4 | inactive |
| S100a7a | 1 | 80.3 | 71.3 | inactive |
| S100a7a | 2 | 98.1 | 76.9 | inactive |
| S100a7a | 3 | 73 | 58.5 | inactive |
| Nup133 | 1 | 60.9 | 67.3 | inactive |
| Nup133 | 2 | 46.1 | 67.4 | inactive |
| Nup133 | 3 | 76.5 | 63.7 | inactive |
| Atp2a1 | 1 | 19.6 | 23.6 | inactive |
| Atp2a1 | 2 | 50.2 | 70.6 | inactive |
| Atp2a1 | 3 | 46.8 | 57.1 | inactive |
| Or2g1 | 1 | 83.9 | 78.4 | inactive |
| Or2g1 | 2 | 98.7 | 81.2 | inactive |
| Or2g1 | 3 | 63.1 | 75.2 | inactive |
| Or6c216 | 1 | 75.9 | 87 | inactive |
| Or6c216 | 2 | 72.4 | 83.2 | inactive |
| Or6c216 | 3 | 51.9 | 63.7 | inactive |
| Zpld1 | 1 | 79.3 | 64.2 | inactive |
| Zpld1 | 2 | 47.7 | 33 | inactive |
| Zpld1 | 3 | 62.5 | 97.3 | inactive |
| Hoxb4 | 1 | 76.6 | 85.5 | inactive |
| Hoxb4 | 2 | 85.2 | 71.3 | inactive |
| Hoxb4 | 3 | 163 | 93.4 | active |
| Cadm2 | 1 | 82.6 | 92.2 | inactive |
| Cadm2 | 2 | 58.4 | 53.9 | inactive |
| Cadm2 | 3 | 95.6 | 44.3 | inactive |
| Pla2g4d | 1 | 127 | 106 | active |
| Pla2g4d | 2 | 111 | 102 | inactive |
| Pla2g4d | 3 | 88.4 | 73.2 | inactive |
| Sarnp | 1 | 90.4 | 64.7 | inactive |
| Sarnp | 2 | 76 | 82.4 | inactive |
| Sarnp | 3 | 31.4 | 16.7 | inactive |
| Ensa | 1 | 80.3 | 92.7 | inactive |
| Ensa | 2 | 68.9 | 51.4 | inactive |
| Ensa | 3 | 70.5 | 72.5 | inactive |
| Or2y1d | 1 | 111 | 51.9 | inactive |
| Or2y1d | 2 | 62.4 | 51.3 | inactive |
| Or2y1d | 3 | 48.6 | 110 | inactive |
| Hmgn5 | 1 | 83.9 | 45 | inactive |
| Hmgn5 | 2 | 45.2 | 47.8 | inactive |
| Hmgn5 | 3 | 63.2 | 63 | inactive |
| Arg2 | 1 | 84.3 | 47.3 | inactive |
| Arg2 | 2 | 124 | 103 | active |
| Arg2 | 3 | 102 | 110 | inactive |
| Vmn1r62 | 1 | 113 | 55.9 | inactive |
| Vmn1r62 | 2 | 104 | 63.6 | inactive |
| Vmn1r62 | 3 | 78.8 | 72.1 | inactive |
| Syt9 | 1 | 90.3 | 158 | inactive |
| Syt9 | 2 | 66.4 | 78.2 | inactive |
